These are yes or no findings as the source states them, for the method shown. Some entries that bind do so weakly or less than the wild type.
T1: 嵌合IL1RAP.H2 (鼠; 人) (UniProt Q61730)
T1 sequence: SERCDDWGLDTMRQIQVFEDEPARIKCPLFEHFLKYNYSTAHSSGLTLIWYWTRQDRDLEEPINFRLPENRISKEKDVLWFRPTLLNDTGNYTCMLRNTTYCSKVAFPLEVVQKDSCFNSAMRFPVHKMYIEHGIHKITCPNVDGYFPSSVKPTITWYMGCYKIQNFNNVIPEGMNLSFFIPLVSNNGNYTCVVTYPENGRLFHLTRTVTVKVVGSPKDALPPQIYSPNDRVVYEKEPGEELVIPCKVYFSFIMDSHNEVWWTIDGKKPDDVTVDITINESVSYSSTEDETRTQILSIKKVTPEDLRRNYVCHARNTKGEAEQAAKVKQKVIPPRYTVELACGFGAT


Tests used:
[1] = target: 重组mfIL1RAP aa21-367 (食蟹猴 (Macaca fascicularis)); assay: binding ELISA, coated mfIL1RAP aa21-367
[2] = target: 重组mfIL1RAP aa21-367 (食蟹猴 (Macaca fascicularis)); assay: ELISA on coated IL1RAP orthologs
嵌合IL1RAP.H2 (鼠; 人) = target: T1, 嵌合IL1RAP.H2 (鼠; 人); assay: ELISA on coated chimeric murine/human IL1RAP

| binding [1] | binding [2] | binding (嵌合IL1RAP.H2 (鼠; 人)) | Binder |
| --- | --- | --- | --- |
| binds | binds | binds | h48D2 VH5.GL:VL4 (antibody, human IgG1, kappa, L234A L235A, V domains shown) VH: QEQLEESGGGLVKPGGTLSLTCTVSGPSLSHFDITWIRQPPGKGLEWIGTISPGVSTYYASWAKSRVTISVDTSLNTVSLKLSSVTAADTATYFCARGGVGSSWKAFDLWGPGTLVTISS VL: ELVMTQSPSSVSASVGDRVTITCQASESISTALAWYQQKPGKAPKLLIYKASTLPSGVPSRFSGSGSGTDFTLTINSLQPEDFATYYCQQGFSSGNVHNAFGGGTKVEIKR |
| binds |  |  | h48D2 VH1:VL4 (antibody, human IgG1, kappa, L234A L235A, V domains shown) VH: EVQLEESGGGLVKPGGSLRLSCAASGPSLSHFDITWVRQAPGKGLEWVSTISPGVSTYYASWAKSRFTISRDNSKNTLYLQMNSLRAEDTAVYYCARGGVGSSWKAFDLWGRGTLVTVSS VL: ELVMTQSPSSVSASVGDRVTITCQASESISTALAWYQQKPGKAPKLLIYKASTLPSGVPSRFSGSGSGTDFTLTINSLQPEDFATYYCQQGFSSGNVHNAFGGGTKVEIKR |
| binds |  |  | h48D2 VH2:VL1 (antibody, human IgG1, kappa, L234A L235A, V domains shown) VH: EVQLVESGGALVQPGGSLRLSCIVSGPSLSHFDITWFRQAPGKGLEWVATISPGVSTYYASWAKSRFTISTDTSKNTLFLQMDSLRAEDTAVYYCARGGVGSSWKAFDLWGPGTLVTVSS VL: DIVMTQSPSSLSASVGDRVTITCQASESISTALAWYQQKPGKAPKLLIYKASTLPSGVPSRFSGSGSGTDFTLTISSLQPEDFATYYCQQGFSSGNVHNAFGGGTKVVIKR |
| binds |  |  | h48D2 VH1:VL5 (antibody, human IgG1, kappa, L234A L235A, V domains shown) VH: EVQLEESGGGLVKPGGSLRLSCAASGPSLSHFDITWVRQAPGKGLEWVSTISPGVSTYYASWAKSRFTISRDNSKNTLYLQMNSLRAEDTAVYYCARGGVGSSWKAFDLWGRGTLVTVSS VL: APVLTQSPATLEASVGDRVTITCQASESISTALAWYQQKPGQPPKLLIYKASTLPSGVPSRFSGSGSGTEFTLTISDLESDDAATYYCQQGFSSGNVHNAFGGGTEVVVKR |

From patent CN116724055A
